# Test results: PubChem BioAssay AID504467 (National Center for Advancing Translational Sciences (NCATS), 2011)
# Hit rate of the full screen: of about 330,000 compounds, about 7,700 (2.3%) were called active. This list was built around the results that the source calls inconclusive (neither active nor inactive); the mix of calls is not that of the screen. Calls come from the whole dose curve; as a rule, active = well fitted inhibition curve with a large enough effect; inconclusive = small, poorly fitted or top-dose-only effect, or effect the other way; inactive = flat fitted curve, though single readings scatter. Potencies of inconclusive entries are doubtful fits and often do not repeat.
# Assay: qHTS screen for small molecules that inhibit ELG1-dependent DNA repair in human embryonic kidney (HEK293T) cells expressing luciferase-tagged ELG1; note: nearly all actives have a fitted effect of over 55% in size
# Details: HEK293T ELG1-luciferase reporter, luminescence, 16 h, DNA damage induced by 5-fluorouridine; series mostly up to 46.1 µM
# How it was run: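 Reporter activity after DNA damage by 5-fluorouridine is monitored. Compound-treated cells incubate 16 hr at 37 °C, then ONE-Glo is added for 30 min before luminescence reading.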
# Potency is the fitted concentration of half-maximal effect.
row,SMILES,Potency
1,CCOc1ccccc1N1CCN(C(=O)c2cc3cc(OC)ccc3[nH]2)CC1,inactive
2,COc1ccc(CCNC(=O)CCN2C(=O)c3ccccc3C2=O)cc1OC,inactive
3,Nc1cc(S(=O)(=O)N2CCCCC2)ccc1Oc1ccc(Cl)cc1,"inconclusive: 23.1 µM [inhibitor, single point]"
4,FC(F)(F)c1ccccc1-c1nc(-c2ccncc2)no1,"inconclusive: 23.1 µM [activator, single point]"
5,COc1ccc(CC(=O)NNC(=S)Nc2ccccc2)cc1Cl,inactive
6,CN(c1ccccc1)S(=O)(=O)c1ccc(C(=O)Nc2nnc(-c3ccc(F)cc3)o2)cc1,"inconclusive: 20.6 µM [inhibitor, partial curve]"
7,CC(=O)CSc1nnc(Cc2ccc3c(c2)OCO3)o1,"inconclusive: 9.2 µM [activator, partial curve]"
8,COc1cccc(CN(C)C(=O)c2cc(COc3ccc4ncccc4c3)on2)c1,"inconclusive: 6.51 µM [inhibitor, full curve]"
9,COc1ccccc1-c1cc(-c2ccccc2)nc(=O)[nH]1,inactive
10,c1ccc(-c2csc3ncnc(N4CCc5ccccc5C4)c23)cc1,"inconclusive: 16.4 µM [inhibitor, single point]"
11,COc1cc(/C=N/NC(=O)CCNC(=O)c2ccccc2Cl)ccc1O,inactive
12,COc1ccc(/C=C2\CN(Cc3ccccc3)C/C(=C\c3ccc(OC)cc3OC)C2=O)c(OC)c1,"inconclusive: 8.2 µM [inhibitor, partial curve]"
13,Cc1ccc(-n2[nH]c(C)c(C=Nc3ccc(S(=O)(=O)Nc4nccs4)cc3)c2=O)cc1C,"inconclusive: 18.4 µM [activator, single point]"
14,CC(=O)Nc1cccc(-c2nc3ccccc3s2)c1,"inconclusive: 8.2 µM [activator, partial curve]"
15,CCc1cc2c(=O)n(-c3ccccc3)cnc2s1,"inconclusive: 18.4 µM [activator, partial curve]"
16,Cc1ccc(C(=O)NNC(=O)c2ccccc2)cc1S(=O)(=O)N1CCCCC1,inactive
17,O=C(Nc1ccc2c(c1)OCO2)C1CCCN1C(=O)NCc1ccccc1 (stereo not given),inactive
18,O=C(Nc1ccccc1-c1nc2ccccc2s1)C1=COCCO1,"inconclusive: 25.9 µM [inhibitor, single point]"
19,O=C(/C=C/c1ccccc1)NC1CC2CCC1C2 (stereo not given),"inconclusive: 16.4 µM [activator, partial curve]"
20,COc1ccc(-n2cc(C(=O)c3cc(Cl)ccc3O)cc(C#N)c2=O)cc1,"inconclusive: 18.3 µM [inhibitor, partial curve, poor fit]"
21,Cc1ccc(S(=O)(=O)N2CCCCC2)cc1NC(=O)Cn1ccc(C(F)(F)F)n1,"inconclusive: 25.9 µM [inhibitor, single point]"
22,Cc1ccc(N/N=C/c2ccc3c(c2)OCCO3)cc1Cl,"inconclusive: 18.4 µM [activator, partial curve]"
23,O=C(c1ccc(S(=O)(=O)c2ccccc2Cl)c([N+](=O)[O-])c1)N1CCCCCC1,"inconclusive: 16.4 µM [inhibitor, partial curve, poor fit]"

row,SMILES,Potency
1,CCOC(=O)C1CCN(C(=S)NC2CC3C=CC2C3)CC1 (stereo not given),inactive
2,O=C(OCc1ccccc1)c1cnc(Cl)c(Cl)c1,inactive
3,CC(C)(C)NC(=O)CN1CCN(C(=O)CCl)CC1,"inconclusive: 23.1 µM [activator, single point]"
4,COc1cc(NC(=O)CCNC(=O)Cn2cnc3sc4c(c3c2=O)CCCC4)cc(OC)c1OC,"inconclusive: 5.8 µM [inhibitor, full curve, poor fit]"
5,COc1ccc(C(c2c(NC(C)=O)sc3c2CCCC3)N2CCN(CCO)CC2)cc1OC (stereo not given),"inconclusive: 29.1 µM [activator, single point]"
6,CCOc1cc(-c2nc(C)c(C(C)=O)n2O)ccc1OCC(=O)Nc1cccc(C)c1,"inconclusive: 29.1 µM [inhibitor, single point]"
7,N/C(=N\N=C\c1ccnc2ccccc12)SC1CC(=O)N(c2ccc(Br)cc2)C1=O (stereo not given),inactive
8,O=C(CCc1nc2ccccc2[nH]1)Nc1ccc2c(c1)OCO2,inactive
9,O=C(c1cccc(Cl)c1)N1CCN(c2ncnc3c2cnn3-c2ccccc2)CC1,active: 11.6 µM
10,CCOC(=O)c1sc(NC(=O)CSc2nc3ccccc3s2)c(C(=O)OCC)c1C,"inconclusive: 20.6 µM [activator, single point]"
11,Cc1sc2ncn(CC(=O)NCCCC(=O)N3CCCCC3)c(=O)c2c1C,inactive
12,Cc1cccc(NC(=O)COC(=O)c2ccc(S(=O)(=O)N3CCCC3)cc2)c1,inactive
13,COc1cc(NC(=O)CCC(=O)c2cccs2)cc(OC)c1,"inconclusive: 20.6 µM [activator, partial curve, poor fit]"
14,CCOc1ccc(C(=O)NCC(=O)OCc2c(F)cccc2Cl)cc1OCC,inactive
15,COc1ccc([C@@H]2CC(=O)c3c(O)cc(O)cc3O2)cc1O,"inconclusive: 11.2 µM [activator, partial curve, poor fit]"
16,COc1cc(C(=O)NCc2ccc(-c3nc4ccccc4s3)cc2)cc(OC)c1OC,"inconclusive: 5.8 µM [activator, partial curve, poor fit]"
17,COc1ccc(Cl)cc1S(=O)(=O)N1CCN(C(=O)c2n[nH]c(=O)c3ccccc23)CC1,"inconclusive: 7.3 µM [inhibitor, partial curve, poor fit]"
18,N#CCCN(C(=O)CCl)c1cccc(Cl)c1,"inconclusive: 16.4 µM [inhibitor, partial curve, poor fit]"
19,O=C(Nc1ccc(Cl)cc1)c1ccc(-n2cncn2)c([N+](=O)[O-])c1,inactive
20,O=C(Nc1ccccc1)c1c(F)cccc1F,"inconclusive: 29.1 µM [activator, single point]"
21,COc1ccccc1-c1nnc(NC(=O)C(C)Sc2nncn2C)s1 (stereo not given),"inconclusive: 20.6 µM [activator, partial curve, poor fit]"
22,COc1ccc(NC(=O)c2cc(S(=O)(=O)NCC3COc4ccccc4O3)ccc2F)cc1 (stereo not given),"inconclusive: 25.9 µM [inhibitor, partial curve]"

# 4 entries drawn at random from the list so far, as already listed:
row,SMILES,Potency
5,COc1ccc(C(c2c(NC(C)=O)sc3c2CCCC3)N2CCN(CCO)CC2)cc1OC (stereo not given),"inconclusive: 29.1 µM [activator, single point]"
12,Cc1cccc(NC(=O)COC(=O)c2ccc(S(=O)(=O)N3CCCC3)cc2)c1,inactive
9,O=C(c1cccc(Cl)c1)N1CCN(c2ncnc3c2cnn3-c2ccccc2)CC1,active: 11.6 µM
16,COc1cc(C(=O)NCc2ccc(-c3nc4ccccc4s3)cc2)cc(OC)c1OC,"inconclusive: 5.8 µM [activator, partial curve, poor fit]"
